Source: article PMC11811199
No constants are given. Whether binding was seen depends on the method and setting. In cells and extracts the contact can be indirect. Some results given as binding are weak or reduced against the parent protein; the word gives no strength. Sequences can lack the tags named with a protein.

Biological target: T1, Flag-IRF3 (UniProt Q14653)
T1 sequence: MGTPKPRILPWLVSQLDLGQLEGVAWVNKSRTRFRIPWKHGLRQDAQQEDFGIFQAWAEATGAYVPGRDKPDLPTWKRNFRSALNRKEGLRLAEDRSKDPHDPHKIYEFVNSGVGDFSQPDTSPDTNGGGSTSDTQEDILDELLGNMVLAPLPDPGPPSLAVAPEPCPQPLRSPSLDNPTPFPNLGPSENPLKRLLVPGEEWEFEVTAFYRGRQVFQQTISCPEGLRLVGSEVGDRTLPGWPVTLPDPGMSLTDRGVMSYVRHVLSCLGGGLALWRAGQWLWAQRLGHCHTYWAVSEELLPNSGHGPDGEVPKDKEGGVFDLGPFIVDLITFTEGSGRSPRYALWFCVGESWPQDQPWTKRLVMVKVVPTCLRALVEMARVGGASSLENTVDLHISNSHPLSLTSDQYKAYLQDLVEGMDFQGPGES
Experiment: co-IP

B1: HA-TBK1 (protein, UniProt Q9UHD2 1-729)
chain: MQSTSNHLWLLSDILGQGATANVFRGRHKKTGDLFAIKVFNNISFLRPVDVQMREFEVLKKLNHKNIVKLFAIEEETTTRHKVLIMEFCPCGSLYTVLEEPSNAYGLPESEFLIVLRDVVGGMNHLRENGIVHRDIKPGNIMRVIGEDGQSVYKLTDFGAARELEDDEQFVSLYGTEEYLHPDMYERAVLRKDHQKKYGATVDLWSIGVTFYHAATGSLPFRPFEGPRRNKEVMYKIITGKPSGAISGVQKAENGPIDWSGDMPVSCSLSRGLQVLLTPVLANILEADQEKCWGFDQFFAETSDILHRMVIHVFSLQQMTAHKIYIHSYNTATIFHELVYKQTKIISSNQELIYEGRRLVLEPGRLAQHFPKTTEENPIFVVSREPLNTIGLIYEKISLPKVHPRYDLDGDASMAKAITGVVCYACRIASTLLLYQELMRKGIRWLIELIKDDYNETVHKKTEVVITLDFCIRNIEKTVKVYEKLMKINLEAAELGEISDIHTKLLRLSSSQGTIETSLQDIDSRLSPGGSLADAWAHQEGTHPKDRNVEKLQVLLNCMTEIYYQFKKDKAERRLAYNEEQIHKFDKQKLYYHATKAMTHFTDECVKKYEAFLNKSEEWIRKMLHLRKQLLSLTNQCFDIEEEVSKYQEYTNELQETLPQKMFTASSGIKHTMTPIYPSSNTLVEMTLGMKKLKEEMEGVVKELAENNHILERFGSLTMDGGLRNVDCL
  binding: binds
